According to PMC9640623:
The exact form of at least one protein or probe is not confirmed. For some assays here: Where cells or extracts were used, other partners may take part. For some assays here: Negatives hold for the conditions tested. For some assays here: The comparison behind a weaker result is the experiment's own reference, which may not be listed here.

Amino acid sequences for entries named in this document (tags omitted). A change or cut given only in a name is not applied to a line headed by its entry. Chains listed by the source or under a name are the forms on record and can include a tag or linker. Residues count along the entry.
UniProt Q9Y3Z3, other isoform, or with tags, fused parts or gaps: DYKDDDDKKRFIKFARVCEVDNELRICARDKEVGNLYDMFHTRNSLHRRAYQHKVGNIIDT
UniProt Q9Y3Z3, 300-465: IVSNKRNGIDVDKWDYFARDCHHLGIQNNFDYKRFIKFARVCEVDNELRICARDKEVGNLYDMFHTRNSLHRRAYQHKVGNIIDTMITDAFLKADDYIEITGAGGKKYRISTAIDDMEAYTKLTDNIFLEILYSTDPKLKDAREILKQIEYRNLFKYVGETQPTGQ
UniProt Q9Y3Z3, whole entry K354R: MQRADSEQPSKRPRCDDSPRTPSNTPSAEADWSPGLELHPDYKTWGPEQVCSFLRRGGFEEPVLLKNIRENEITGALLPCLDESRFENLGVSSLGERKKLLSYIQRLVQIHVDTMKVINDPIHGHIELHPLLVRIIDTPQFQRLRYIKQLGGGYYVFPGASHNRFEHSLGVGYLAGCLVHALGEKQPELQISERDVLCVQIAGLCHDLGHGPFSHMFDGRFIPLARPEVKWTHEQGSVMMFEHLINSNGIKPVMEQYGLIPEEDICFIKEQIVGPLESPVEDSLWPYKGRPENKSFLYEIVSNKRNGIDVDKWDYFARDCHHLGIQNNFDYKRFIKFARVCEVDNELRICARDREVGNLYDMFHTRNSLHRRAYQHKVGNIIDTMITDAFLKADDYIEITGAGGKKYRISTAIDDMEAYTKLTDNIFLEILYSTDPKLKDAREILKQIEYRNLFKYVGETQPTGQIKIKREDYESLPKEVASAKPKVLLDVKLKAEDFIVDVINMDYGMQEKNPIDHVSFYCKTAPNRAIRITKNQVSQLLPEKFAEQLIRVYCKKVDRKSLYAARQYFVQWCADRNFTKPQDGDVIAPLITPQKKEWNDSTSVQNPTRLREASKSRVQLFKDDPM
UniProt Q9Y3Z3, whole entry K354Q: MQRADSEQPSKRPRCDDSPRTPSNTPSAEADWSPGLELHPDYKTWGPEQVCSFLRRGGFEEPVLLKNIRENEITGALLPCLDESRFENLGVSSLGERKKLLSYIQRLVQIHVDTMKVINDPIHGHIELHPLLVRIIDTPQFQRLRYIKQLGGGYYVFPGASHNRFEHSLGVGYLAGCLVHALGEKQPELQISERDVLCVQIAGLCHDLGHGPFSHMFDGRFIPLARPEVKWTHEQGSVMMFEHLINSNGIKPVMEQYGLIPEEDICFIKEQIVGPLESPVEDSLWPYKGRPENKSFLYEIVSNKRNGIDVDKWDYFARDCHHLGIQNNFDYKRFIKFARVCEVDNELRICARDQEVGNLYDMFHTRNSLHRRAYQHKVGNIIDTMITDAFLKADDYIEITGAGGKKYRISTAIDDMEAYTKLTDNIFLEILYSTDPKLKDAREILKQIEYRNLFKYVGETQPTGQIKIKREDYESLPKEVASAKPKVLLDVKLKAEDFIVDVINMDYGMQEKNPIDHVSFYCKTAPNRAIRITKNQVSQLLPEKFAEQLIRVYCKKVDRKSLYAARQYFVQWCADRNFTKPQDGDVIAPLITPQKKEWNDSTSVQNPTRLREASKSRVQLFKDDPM
UniProt Q99708: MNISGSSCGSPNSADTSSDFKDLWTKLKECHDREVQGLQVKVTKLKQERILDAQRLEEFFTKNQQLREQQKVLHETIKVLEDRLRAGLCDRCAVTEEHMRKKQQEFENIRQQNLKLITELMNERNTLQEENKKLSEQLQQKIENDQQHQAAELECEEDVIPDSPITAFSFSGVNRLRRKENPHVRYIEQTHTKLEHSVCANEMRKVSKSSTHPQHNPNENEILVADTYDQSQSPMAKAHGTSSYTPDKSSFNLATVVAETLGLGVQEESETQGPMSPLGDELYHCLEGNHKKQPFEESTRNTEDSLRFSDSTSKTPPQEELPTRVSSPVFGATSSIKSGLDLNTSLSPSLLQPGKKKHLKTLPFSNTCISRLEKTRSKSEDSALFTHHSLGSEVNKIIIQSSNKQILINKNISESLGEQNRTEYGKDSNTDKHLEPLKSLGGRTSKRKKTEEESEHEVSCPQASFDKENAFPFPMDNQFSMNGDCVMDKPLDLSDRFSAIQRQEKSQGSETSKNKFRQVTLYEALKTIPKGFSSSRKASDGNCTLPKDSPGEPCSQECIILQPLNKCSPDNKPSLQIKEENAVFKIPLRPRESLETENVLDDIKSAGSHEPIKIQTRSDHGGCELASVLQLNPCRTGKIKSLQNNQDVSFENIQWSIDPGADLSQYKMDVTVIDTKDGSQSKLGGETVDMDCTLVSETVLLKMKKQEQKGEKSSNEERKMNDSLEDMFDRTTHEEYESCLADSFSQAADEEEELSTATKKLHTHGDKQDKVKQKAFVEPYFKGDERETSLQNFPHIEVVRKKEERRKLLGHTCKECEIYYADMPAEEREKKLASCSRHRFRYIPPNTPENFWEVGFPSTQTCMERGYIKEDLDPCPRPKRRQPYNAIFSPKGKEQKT

Tests used:
[1] = molecular target: SAMHD1 (endogenous) (UniProt Q9Y3Z3); experiment: pull-down; settings: Pull-down: 40 pmol biotin-DNA on streptavidin beads, 10 mM Tris-HCl pH 7.5, 100 mM NaCl, 10% glycerol, 10 ug/mL BSA, 0.05% NP40, 0.35% CHAPS, 4 C overnight, protein in an extract
[2] = molecular target: FLAG-SAMHD1 (332-384) peptide, non-acetylated (UniProt Q9Y3Z3); experiment: EMSA; settings: 0.2 uM ssDNA, dose-dependent shift, 250 uM dNTP, EMSA: 25 mM Tris-Cl, 50 mM KCl, 4.2 mM MgCl2, 5% glycerol, 1 mM EDTA, pH 7.9, 30 min, room temperature, protein details: N-terminal FLAG (DYKDDDDK), label: 3'-biotin, single-stranded DNA
[3] = molecular target: FLAG-SAMHD1 (332-384) peptide, non-acetylated (UniProt Q9Y3Z3); experiment: pull-down; settings: 8 ug peptide; Pull-down: 40 pmol biotin-DNA on streptavidin beads, 10 mM Tris-HCl pH 7.5, 100 mM NaCl, 10% glycerol, 10 ug/mL BSA, 0.05% NP40, 0.35% CHAPS, 4 C overnight; protein details: N-terminal FLAG (DYKDDDDK); label: 3'-biotin; single-stranded DNA
[4] = molecular target: SAMHD1-GFP (300-465) (UniProt Q9Y3Z3); experiment: pull-down; settings: 293T lysate, increased after IR; Pull-down: 40 pmol biotin-DNA on streptavidin beads, 10 mM Tris-HCl pH 7.5, 100 mM NaCl, 10% glycerol, 10 ug/mL BSA, 0.05% NP40, 0.35% CHAPS, 4 C overnight; protein in a lysate after overexpression; residues 300-465; protein details: GFP, myc-NLS; label: 3'-biotin; single-stranded DNA
[5] = molecular target: SAMHD1-GFP K354R (UniProt Q9Y3Z3); experiment: pull-down; settings: 293T lysate, Pull-down: 40 pmol biotin-DNA on streptavidin beads, 10 mM Tris-HCl pH 7.5, 100 mM NaCl, 10% glycerol, 10 ug/mL BSA, 0.05% NP40, 0.35% CHAPS, 4 C overnight, protein in a lysate after overexpression, protein details: GFP
[6] = molecular target: CtIP (endogenous) (UniProt Q99708); experiment: pull-down; settings: Pull-down: 40 pmol biotin-DNA on streptavidin beads, 10 mM Tris-HCl pH 7.5, 100 mM NaCl, 10% glycerol, 10 ug/mL BSA, 0.05% NP40, 0.35% CHAPS, 4 C overnight, protein in an extract, label: 3'-biotin, single-stranded DNA
[7] = molecular target: SAMHD1-GFP K354Q (UniProt Q9Y3Z3); experiment: pull-down; settings: 293T lysate, Pull-down: 40 pmol biotin-DNA on streptavidin beads, 10 mM Tris-HCl pH 7.5, 100 mM NaCl, 10% glycerol, 10 ug/mL BSA, 0.05% NP40, 0.35% CHAPS, 4 C overnight, protein in a lysate after overexpression, protein details: GFP
[8] = molecular target: SAMHD1-GFP WT (UniProt Q9Y3Z3); experiment: pull-down; settings: 293T lysate, increased after IR, Pull-down: 40 pmol biotin-DNA on streptavidin beads, 10 mM Tris-HCl pH 7.5, 100 mM NaCl, 10% glycerol, 10 ug/mL BSA, 0.05% NP40, 0.35% CHAPS, 4 C overnight, protein in a lysate after overexpression, protein details: GFP
[9] = label: 3'-biotin, single-stranded DNA

Sequence: CCTCGAGCGATCCGTCCTAGCAAGC (double strand) [dsDNA blunt (oligos 1 and 2)]
- binding result ([1]; 293T lysate, label: 3'-biotin on strand 2): no binding

Sequence: GCTTGCTAGGACGGATCGCTCGAGG [ssDNA (oligo 2)]
- binding result [2]: binds
- binding result [3]: binds
- binding result [4]: binds
- binding result [5, 9]: binds
- binding result ([6]; 293T lysate, increased after IR): binds
- binding result ([6]; SAMHD1-depleted 293T lysate, IR, rescued by SAMHD1-GFP WT and K354R, not K354Q): binds more weakly
- binding result ([6]; SIRT1-depleted 293T lysate, IR): binds more weakly
- binding result ([1]; 293T lysate, increased after 10 Gy IR, order 5' overhang > ssDNA > 3' overhang, label: 3'-biotin, single-stranded DNA): binds
- binding result ([1]; SIRT1-depleted 293T lysate, IR, label: 3'-biotin, single-stranded DNA): binds more weakly
- binding result [7, 9]: binds more weakly
- binding result [8, 9]: binds

Sequence: GCTTGCTAGGACGGATCGCTCGAGGTTTACCCTGCTATACGGTGA / CCTCGAGCGATCCGTCCTAGCAAGC [3' overhang DNA (oligos 5 and 1)]
- binding result ([1]; 293T lysate, below ssDNA, increased after IR, label: 3'-biotin on strand 1): binds more weakly

Sequence: TCACCGTATAGCAGGGTAAACCTCGAGCGATCCGTCCTAGCAAGC / GCTTGCTAGGACGGATCGCTCGAGG [5' overhang DNA (oligos 4 and 3)]
- binding result ([5]; label: 3'-biotin on strand 1): binds
- binding result ([1]; 293T lysate, strongest substrate, increased after IR, label: 3'-biotin on strand 1): binds
- binding result ([7]; label: 3'-biotin on strand 1): binds more weakly
- binding result ([8]; label: 3'-biotin on strand 1): binds
